Results reported in patent publication US20170267716.

Columns and labels:
Test in all cases: pull-down
[1] = tested on: IgE antibody (full-length) (Homo sapiens); settings: 5' azide (5AzideN), conjugated via DBCO click to pNIPAM (28 kDa), 5' T10 spacer, PBS, purified native protein, protein details: Athens Research & Technology, single-stranded DNA; for binding signal: affinity thermoprecipitation, 200 nM IgE, 1 mM MgCl2, 0.005% Tween-20, RT 1 h, eluted 0.5 M NaCl
[2] = target: L-selectin (Homo sapiens) (UniProt P14151); settings: 5' azide (5AzideN), conjugated via DBCO click to pNIPAM (18 or 28 kDa), single-stranded DNA; for binding result: 5' T10 spacer, off-target control, no measurable recovery, HBS-P pH 7.4
Thrombin = settings: 5' azide (5AzideN), conjugated via DBCO click to pNIPAM (18 or 28 kDa); 5' T10 spacer; only modest recovery; 200 nM protein, HBS-P pH 7.4, 150 mM NaCl; eluted 0.5 M NaCl; single-stranded DNA

Sequence: TTTTTTTTTTGCGCGGGGCACGTTTATCCGTCCCTCCTAGTGGCGTGCCCCGCGC [Extended IgE aptamer]
- binding signal ([1]; Example 8 first round ~52.7%, variant of IgE aptamer (IGE)): 77 % recovery

Sequence: TTTTTTTTTTGGTGGTGGTTGTGGT [Thrombin randomer]
- binding result ([2]; variant of Thrombin aptamer): no binding

Sequence: TTTTTTTTTTCTGCTCGTTGGCTGAGGCCGTCTCGCGTCGCAGCGCTACGGCCCC [Extended IgE randomer]
- binding result ([1]; randomer control, no measurable recovery, 1 mM MgCl2, 0.005% Tween-20, variant of Extended IgE aptamer): no binding

Sequence: TTTTTTTTTTGGGGCACGTTTATCCGTCCCTCCTAGTGGCGTGCCCC [IgE aptamer (IGE)]
- binding signal ([1]; ~75% recovered from spent CHO media (Example 7, p104)): 55 % recovery

Sequence: TTTTTTTTTTTAGCCAAGGTAACCAGTACAAGGTGCTAAACGTAATGGCTTCGGCTTAC [L-Selectin aptamer]
- binding signal ([2]; 5' T spacer, affinity thermoprecipitation, 200 nM protein, HBS-P pH 7.4, 150 mM NaCl, RT 1 h, eluted in 1xTBE): > 60 % recovery

Sequence: TTTTTTTTTTGGTTGGTGTGGTTGG [Thrombin aptamer]
- binding result (Thrombin): binds
- binding result [2]: no binding

Construct, isoform or probe ends are uncertain for at least one entry. For some of these results: No signal at the amounts used counts as a negative. For some of these results: Whether high values mean tight binding is not given here for every scale.
